Data reported in PubChem BioAssay AID1347076 (National Center for Advancing Translational Sciences (NCATS), 2019).
The whole screen tested about 400,000 compounds, of which about 13,000 (3.2%) were called active. Inconclusive results, whose numbers are uncertain, are shown with a selection of clear calls. Calls come from the whole dose curve; as a rule, active = well fitted cell-killing curve with a large enough effect; inconclusive = small, poorly fitted or top-dose-only effect, or effect the other way; inactive = flat fitted curve, though single readings scatter. Where the call is inconclusive, the potency comes from a doubtful curve fit.

Experiment: qHTS assay for MDR1-selective chemotherapeutics: Primary screen using the drug-selected MDR subline cells KB-V1; note: nearly all actives have a fitted effect of over 60% in size
Conditions: KB-V1 MDR cells viability, CellTiter-Glo, 72 h; activity change, negative = cytotoxicity: at 46.1 µM (top of the series)
How it was run: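 Drug-selected KB-V1 cells, grown in DMEM lacking phenol red with 10% FBS, receive compound titrations; after three days at 37 degrees C, surviving cell ATP is quantified by CellTiter-Glo luminescence and responses normalized and curve-fitted.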
% is set by controls: 0 for no effect and ±100 for the full control effect; potency is the fitted concentration of half-maximal effect.

Compound | activity change, negative = cytotoxicity | Potency
CC(C)N(CCNC(=O)c1ccc(CS(=O)(=O)c2c(Cl)cccc2Cl)o1)Cc1ccccc1 | inactive: -15.2% | –
CCn1c(O)c(N=NC(=O)Cc2csc(N3CCOCC3)n2)c2ccccc21 | – | inconclusive: 11.6 µM [cytotoxic, partial curve]
CC1(C)OC(=O)C(=Cc2ccc[nH]2)C(=O)O1 | – | inconclusive: 29.1 µM [rising, single point]
COC(=O)C1=C(C)N(CCCC(=O)O)C(=O)NC1c1ccccc1OS(=O)(=O)c1ccccc1[N+](=O)[O-] (centres undefined) | inactive: 10.7% | –
Cc1cc2oc(C(=O)NCc3ccncc3)c(C)c2cc1C | – | inconclusive: 29.1 µM [cytotoxic, single point]
COc1cc(NC(=O)CSCC(=O)Nc2cc(OC)cc(OC)c2)cc(OC)c1 | inactive: -4.21% | –
S=c1[nH]nc(-c2ccc3ccccc3n2)n1-c1ccccc1 | – | active: 23.1 µM
CC(C)=CCN1CCNC(=O)C1CC(=O)NCc1nc(C)c(C)s1 (centres undefined) | – | inconclusive: 29.1 µM [rising, partial curve, poor fit]
O=C(CSc1nc(-c2ccccc2)c(-c2ccccc2)[nH]1)NCc1ccco1 | – | active: 10.3 µM
COC(=O)c1nc(-c2ccccc2)oc1N(C)C | – | active: 16.4 µM
CCC(=O)N1CCc2cc(Br)cc(S(=O)(=O)NCCc3ccccc3Cl)c21 | inactive: -4.19% | –
COc1ccc(OCC(=O)OCC(=O)NC2CCCCC2C)cc1 (centres undefined) | – | inconclusive: 7.31 µM [rising, partial curve]
CC(=O)c1cccc(NC(=O)c2cnn(-c3cccc(C)c3)c2-n2cccc2)c1 | inactive: -28.6% | –
O=C(COc1ccc(Cl)cc1Br)Nc1ccccc1N1CCCC1 | – | inconclusive: 23.1 µM [cytotoxic, single point]
O=C1c2c(-c3ccc(Br)cc3)noc2CCN1Cc1cn(-c2ccc(Cl)cc2)nn1 | – | active: 18.4 µM
CCOC(=O)[C@]12CCCC=C1N(CCC1=CCCCC1)C(=O)[C@H](CC(=O)NCc1ccc(OC)c(OC)c1)C2 | – | inconclusive: 14.6 µM [cytotoxic, partial curve]
COC(=O)c1cc(OC)c(OC)cc1NC(=O)C(C)Sc1ccc(C)cc1 (centres undefined) | – | inconclusive: 23.1 µM [cytotoxic, partial curve, poor fit]
Cc1cc(C)c(NC(=O)CSc2nc(C)cc(C)c2C#N)c(C)c1 | inactive: -22.5% | –
COc1ccc(N2CCN(S(=O)(=O)c3c(C)nc4scc(C)n4c3=O)CC2)cc1 | – | inconclusive: 2.06 µM [cytotoxic, partial curve, poor fit]
CCN1C(=O)CC(SC2CC(=O)N(CC)C2=O)C1=O (centres undefined) | – | inconclusive: 4.61 µM [rising, partial curve, poor fit]
CCN(CC(=O)NCc1cccs1)C(=O)c1cccc(S(=O)(=O)NCc2ccccc2)c1 | – | inconclusive: 8.2 µM [cytotoxic, partial curve]
Cc1ccc(NC(=O)CC2C(=O)N(Cc3ccccc3)C(=S)N2NC(=O)c2cccc(F)c2)c(C)c1 (centres undefined) | – | active: 4.11 µM
COc1ccc(-c2c(Sc3ccccc3)c3cc(-c4ccc5c(c4)OCO5)ccc3n2C)cc1 | inactive: 9.85% | –
CSc1ccc(Cl)c(C(=O)OCC(=O)N(C)CCC#N)c1 | – | inconclusive: 29.1 µM [rising, single point]
CCOCCCN1CN(Cc2ccccc2)CNC1=S | – | inconclusive: 23.1 µM [cytotoxic, partial curve]

Compound | activity change, negative = cytotoxicity | Potency
Cc1cc(C)c(S(=O)(=O)N2CCCC2CNC(=O)c2ccc3c(c2)OCO3)c(C)c1 (centres undefined) | – | inconclusive: 3.66 µM [cytotoxic, full curve]
Cc1ccn(CCC(=O)N2c3ccccc3CC2C)n1 (centres undefined) | – | inconclusive: 29.1 µM [rising, single point]
COC(=O)Cc1c(C)c2ccc(O)c(CN3CCCC(C)C3)c2oc1=O (centres undefined) | inactive: -2.35% | –
C#CCN1CCc2onc(-c3ccc(Br)cc3)c2C1=O | – | active: 18.4 µM
COCCNc1nc2cc(-c3ccccc3C)sc2c(=O)n1C | inactive: -0.524% | –
CC(Oc1ccc(Cl)cc1)C(=O)NCCN1C(=O)S/C(=C\c2cccnc2)C1=O (centres undefined) | – | inconclusive: 29.1 µM [cytotoxic, single point]
O=C(c1c(F)cccc1F)N(Cc1ccccn1)C1CCCC1 | – | active: 20.6 µM
C=CCN1C(=NC(=O)CCC)SC2CS(=O)(=O)CC21 (centres undefined) | – | inconclusive: 5.8 µM [rising, partial curve, poor fit]
CC1=NNC(=O)C1Cc1ccccc1C (centres undefined) | – | inconclusive: 20.6 µM [rising, single point]
C=CCNc1nc(C(=O)OCC(=O)N(Cc2ccccc2)C(C)C)cs1 | inactive: -2.3% | –
Cc1sc(NC(=O)CN(C(=O)c2ccccc2F)C2CCCC2)c(C(N)=O)c1C | – | inconclusive: 5.17 µM [cytotoxic, partial curve]
O=C(CNC(=O)c1ccccn1)N/N=C/c1ccccc1 | – | inconclusive: 29.1 µM [rising, single point]
Cc1cccc(OCc2nnc(SCC(=O)OC3CCCCC3)o2)c1 | – | inconclusive: 32.6 µM [rising, partial curve, poor fit]
CCc1cc(C=NC2CCCCC2)c(O)s1 | – | inconclusive: 20.6 µM [cytotoxic, single point]
CC(C)[C@H](NC(=O)[C@@H]1Cc2ccccc2CN1C(=O)OC(C)(C)C)C(=O)NCC1CCCO1 (some centres undefined) | inactive: -21.2% | –
COc1ccc(CN2CC[C@H]3C=CC[C@@H](C(=O)NCc4cccnc4)[C@H]3C2=O)cc1OC | inactive: -11.4% | –
Cc1cccc2cc3ccccc3nc12 | inconclusive: 35.1% | –
CC(=O)c1ccc(NC(=O)C2CCN(S(=O)(=O)c3ccc4c(c3)CCCN4C(=O)C3CCC3)CC2)cc1 | inactive: 0% | –
Cc1ccc(NC(=O)CN(C)C(=O)CSc2nc(C)cc(C)n2)cc1 | – | inconclusive: 18.4 µM [cytotoxic, single point]
CN(C)c1nc(=NCc2cccs2)ss1 | – | inconclusive: 0.231 µM [cytotoxic, full curve, poor fit]
Cc1cc(C(=O)Cn2cncn2)c(C)n1CCc1ccc(F)cc1 | – | inconclusive: 20.6 µM [cytotoxic, single point]
COc1ccc(NC(=O)Nc2ccccc2SC)cc1 | inactive: -12.2% | –
COCCN1C(=O)N[C@@H](c2cccc(C(F)(F)F)c2)[C@@H](C(=O)OC)[C@H]1C | inactive: 0.2% | –
Cc1ccc(C)c(S(=O)(=O)N2CCCCC2CCNC(=O)C(=O)NCCc2ccco2)c1 (centres undefined) | inactive: 0% | –
COC(=O)CC1(C(=O)OC)Oc2ccc(Br)cc2C(=O)N1c1ccc(Br)cc1Cl (centres undefined) | – | active: 18.4 µM

Six compounds picked at random from those above, as already listed:
Compound | activity change, negative = cytotoxicity | Potency
O=C(CSc1nc(-c2ccccc2)c(-c2ccccc2)[nH]1)NCc1ccco1 | – | active: 10.3 µM
CC(C)[C@H](NC(=O)[C@@H]1Cc2ccccc2CN1C(=O)OC(C)(C)C)C(=O)NCC1CCCO1 (some centres undefined) | inactive: -21.2% | –
Cc1ccc(NC(=O)CN(C)C(=O)CSc2nc(C)cc(C)n2)cc1 | – | inconclusive: 18.4 µM [cytotoxic, single point]
CN(C)c1nc(=NCc2cccs2)ss1 | – | inconclusive: 0.231 µM [cytotoxic, full curve, poor fit]
Cc1ccn(CCC(=O)N2c3ccccc3CC2C)n1 (centres undefined) | – | inconclusive: 29.1 µM [rising, single point]
COc1cc(NC(=O)CSCC(=O)Nc2cc(OC)cc(OC)c2)cc(OC)c1 | inactive: -4.21% | –

Remaining list, next part:

Compound | activity change, negative = cytotoxicity | Potency
CC(=O)Nc1ccc(NC(=O)CSc2nc(=O)n(Cc3cccnc3)c3c2CCC3)cc1 | inactive: -0.27% | –
CCC(=O)NC(=S)Nc1ccccc1F | inactive: 19.1% | –
Cc1ccc(C[n+]2cc(-c3ccc(Cl)cc3)n3c2CCC3)cc1 | – | inconclusive: 13 µM [rising, partial curve, poor fit]
O=S(=O)(Nc1ccccc1N1CCOCC1)c1c(F)cc(F)cc1Br | – | inconclusive: 29.1 µM [rising, single point]
Cc1ccc(C)c(N(CC(=O)Nc2cc(Cl)ccc2Oc2ccccc2)S(C)(=O)=O)c1 | – | active: 20.6 µM
COc1ccccc1CNC(=O)c1cn(C)c2ccc(S(=O)(=O)N3CCC(C)CC3)cc2c1=O | inactive: 18.5% | –
O=C(Nc1ccc(N2CCOCC2)c(Cl)c1)c1ccco1 | – | inconclusive: 16.4 µM [cytotoxic, partial curve, poor fit]
CNS(=O)(=O)c1cccc(C(=O)OCC(=O)c2cc(C)n(CC3CCCO3)c2C)c1 (centres undefined) | – | inconclusive: 20.6 µM [cytotoxic, single point]
COc1cccc(OC)c1-c1nn2c(-c3ccco3)nnc2s1 | inactive: 23.1% | –
CCC(C)Sc1ccc([C@H]2N[C@@](CC(C)C)(C(=O)OC)[C@H]3C(=O)N(C)C(=O)[C@@H]23)cc1 (some centres undefined) | – | inconclusive: 14.6 µM [cytotoxic, partial curve]
COc1ccccc1CNc1nc(NCc2ccccc2)nc2ccsc12 | inactive: -27.1% | –
Cc1c(F)cccc1NC(=O)C1CCCN1S(=O)(=O)c1ccc(F)cc1 (centres undefined) | inactive: 1.46% | –
CCc1ccc(NC(=O)COC(=O)Cn2cnc3ccccc32)cc1 | inactive: 17.9% | –
CCN(CC)c1nc(Nc2ccccc2)nc(Oc2ccc(=O)n(C)n2)n1 | – | active: 6.51 µM
CN(C)CCCN(C(=O)c1ccc2c(c1)CCCC2)c1nc2ccc(F)cc2s1 | – | active: 4.11 µM
CCOC(=O)c1[nH]c2c(c1C)C(=O)CC(c1ccc(OC)c(OC)c1)C2 (centres undefined) | inactive: 11.7% | –
Cc1ccc(OCCn2cccn2)c(C)c1 | inactive: 29.7% | –
CCN1C(=O)/C(=C\N2CCN(c3ccccc3)CC2)SC1=S | – | inconclusive: 18.4 µM [cytotoxic, single point]
Cc1cnc(C(=O)Nc2nnc(SCc3c(Cl)cccc3Cl)s2)cn1 | – | inconclusive: 25.9 µM [cytotoxic, single point]
COc1cc(CN2CC(=O)N(c3ccc(C)c(Cl)c3)C2=S)cc(OC)c1OC | – | inconclusive: 16.4 µM [cytotoxic, partial curve, poor fit]
CC/C(=C\C1CCCCC1)C(NP(=O)(c1ccccc1)c1ccccc1)c1ccccc1 (centres undefined) | – | inconclusive: 29.1 µM [cytotoxic, single point]
CN(CCO)c1ccc(C=NNc2ccc([N+](=O)[O-])cc2S(=O)(=O)Nc2ccccc2C(=O)O)cc1 | – | inconclusive: 25.9 µM [cytotoxic, partial curve, poor fit]
COc1ccc(C(=O)Sc2ccc(C)cc2)cc1OC | – | inconclusive: 0.0073 µM [rising, full curve, poor fit]
O=C(NCC(c1cccs1)N1CCOCC1)c1cc([N+](=O)[O-])ccc1Cl (centres undefined) | inactive: -5.93% | –
